According to patent US20250381241A1:
Results are given in words; binding and its absence hold for the method and conditions named. In cells and extracts the contact can be indirect. Some entries that bind do so weakly or less than the wild type.

B1: ΔTAD1 (enzyme, not shown: small tags and cut ends)
chain: MGKVNVAKLRYMSHEIVPGSLIASIASLKHGGCNKVLRELVKHKLIAWERTKTVQGYRLTNAGYDYLALKTLSSRQVVESVGNQMGVGKESDIYIVANEEGQQFALKLHRLGRTSFRNLKNKRDYHKHRHNVSWLYLSRLSAMKEFAYMKALYERKFPVPKPIDYNRHAVVMELINGYPLCQIHHVEDPASVYDEAMELIVKLANHGLIHGDFNEFNLILDESDHITMIDFPQMVSTSHPNAEWYFDRDVKCIKDFFMKRFSYESELFPTFKDIRREDTLDVEVSASGYTKEMQADDELLHPLGPDDKNIETKEGSEFSFSDGEVAEKAEVYGSENESERNCLEESEGCYCRSSGDPEQIKEDSLSEESADARSFEMTEFNQALEEIKGQVVENNSVTEFSEEKNRTENYNRQDGQRVQGGVPAGSDEYEDECPHLIALSSLNREFRPFRDEENVGAMNQYRTRTLSITSSGSAVSCSTIPPELVKQKVKRQLTKQQKSAVRRRLQKGEANIFTKQRRENMQNIKSSLEAASFWGE
B2: ΔTAD2 (enzyme, not shown: small tags and cut ends)
chain: MGKVNVAKLRYMSRDDFRVLTAVEMGMKNHEIVPGSLIASIASLKHGGCNKVLRELVKHKLIAWERTKTVQGYRLTRQVVESVGNQMGVGKESDIYIVANEEGQQFALKLHRLGRTSFRNLKNKRDYHKHRHNVSWLYLSRLSAMKEFAYMKALYERKFPVPKPIDYNRHAVVMELINGYPLCQIHHVEDPASVYDEAMELIVKLANHGLIHGDFNEFNLILDESDHITMIDFPQMVSTSHPNAEWYFDRDVKCIKDFFMKRFSYESELFPTFKDIRREDTLDVEVSASGYTKEMQADDELLHPLGPDDKNIETKEGSEFSFSDGEVAEKAEVYGSENESERNCLEESEGCYCRSSGDPEQIKEDSLSEESADARSFEMTEFNQALEEIKGQVVENNSVTEFSEEKNRTENYNRQDGQRVQGGVPAGSDEYEDECPHLIALSSLNREFRPFRDEENVGAMNQYRTRTLSITSSGSAVSCSTIPPELVKQKVKRQLTKQQKSAVRRRLQKGEANIFTKQRRENMQNIKSSLEAASFWGE

Tests used:
DDX21 (human) = target: T1, DDX21 (human) (UniProt Q9NR30); experiment: co-immunoprecipitation of ectopically expressed HA-tagged RIOK2 with monoclonal anti-HA antibody beads, then LC-MS/MS; spectral counts normalised to the immunoprecipitated HA-RIOK2, fold change with respect to WT
T1 sequence (looked up): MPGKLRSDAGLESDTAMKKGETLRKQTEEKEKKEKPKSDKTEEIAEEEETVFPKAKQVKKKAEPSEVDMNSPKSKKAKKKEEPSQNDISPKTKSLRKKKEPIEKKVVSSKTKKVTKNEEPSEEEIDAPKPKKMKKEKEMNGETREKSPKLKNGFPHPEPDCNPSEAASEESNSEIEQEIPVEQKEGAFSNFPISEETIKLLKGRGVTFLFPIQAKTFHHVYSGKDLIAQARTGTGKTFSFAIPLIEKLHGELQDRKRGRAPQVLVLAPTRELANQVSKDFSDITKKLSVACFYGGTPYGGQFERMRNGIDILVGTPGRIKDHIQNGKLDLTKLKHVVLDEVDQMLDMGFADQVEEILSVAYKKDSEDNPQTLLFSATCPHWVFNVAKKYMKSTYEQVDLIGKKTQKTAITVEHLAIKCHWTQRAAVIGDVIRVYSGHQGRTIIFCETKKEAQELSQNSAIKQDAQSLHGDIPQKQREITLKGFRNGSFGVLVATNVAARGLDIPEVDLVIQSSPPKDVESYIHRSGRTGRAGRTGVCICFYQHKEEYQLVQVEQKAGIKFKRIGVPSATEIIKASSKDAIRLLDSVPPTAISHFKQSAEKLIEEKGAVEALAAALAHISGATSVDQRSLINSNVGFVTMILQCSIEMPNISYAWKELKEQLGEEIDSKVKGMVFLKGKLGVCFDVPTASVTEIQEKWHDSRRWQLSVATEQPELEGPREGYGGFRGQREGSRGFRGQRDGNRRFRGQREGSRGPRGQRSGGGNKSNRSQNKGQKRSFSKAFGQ

WDR43 (human) = target: T2, WDR43 (human) (UniProt Q15061); experiment: as above
T2 sequence (looked up): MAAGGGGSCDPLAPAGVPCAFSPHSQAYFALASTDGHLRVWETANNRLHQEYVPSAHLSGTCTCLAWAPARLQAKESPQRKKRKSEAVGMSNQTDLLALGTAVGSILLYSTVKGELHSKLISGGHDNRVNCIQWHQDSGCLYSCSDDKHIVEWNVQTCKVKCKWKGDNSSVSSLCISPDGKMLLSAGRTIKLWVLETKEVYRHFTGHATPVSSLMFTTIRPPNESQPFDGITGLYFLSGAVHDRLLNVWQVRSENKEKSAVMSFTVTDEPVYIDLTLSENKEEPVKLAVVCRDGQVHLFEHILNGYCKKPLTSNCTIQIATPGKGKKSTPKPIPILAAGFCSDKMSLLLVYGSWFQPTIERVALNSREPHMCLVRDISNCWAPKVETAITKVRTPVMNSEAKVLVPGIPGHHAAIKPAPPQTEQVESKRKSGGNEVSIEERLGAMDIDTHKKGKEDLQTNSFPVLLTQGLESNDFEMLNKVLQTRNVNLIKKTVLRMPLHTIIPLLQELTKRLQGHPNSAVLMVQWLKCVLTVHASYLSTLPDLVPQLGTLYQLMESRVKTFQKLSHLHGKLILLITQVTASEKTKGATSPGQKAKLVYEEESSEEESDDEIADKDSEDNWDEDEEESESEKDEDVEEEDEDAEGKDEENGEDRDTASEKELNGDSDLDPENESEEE

Row | Binder | binding (DDX21 (human)) | binding (WDR43 (human))
1 | B1 | binds | binds
2 | B2 | binds | 
